# From PubChem BioAssay AID1671190 (National Center for Advancing Translational Sciences (NCATS), 2021)
# The chains behind the UniProt entries cited, without tags or fusion partners. Where a name states a change or a piece, a line headed by the entry shows the natural chain unless it says otherwise.
# UniProt P18054: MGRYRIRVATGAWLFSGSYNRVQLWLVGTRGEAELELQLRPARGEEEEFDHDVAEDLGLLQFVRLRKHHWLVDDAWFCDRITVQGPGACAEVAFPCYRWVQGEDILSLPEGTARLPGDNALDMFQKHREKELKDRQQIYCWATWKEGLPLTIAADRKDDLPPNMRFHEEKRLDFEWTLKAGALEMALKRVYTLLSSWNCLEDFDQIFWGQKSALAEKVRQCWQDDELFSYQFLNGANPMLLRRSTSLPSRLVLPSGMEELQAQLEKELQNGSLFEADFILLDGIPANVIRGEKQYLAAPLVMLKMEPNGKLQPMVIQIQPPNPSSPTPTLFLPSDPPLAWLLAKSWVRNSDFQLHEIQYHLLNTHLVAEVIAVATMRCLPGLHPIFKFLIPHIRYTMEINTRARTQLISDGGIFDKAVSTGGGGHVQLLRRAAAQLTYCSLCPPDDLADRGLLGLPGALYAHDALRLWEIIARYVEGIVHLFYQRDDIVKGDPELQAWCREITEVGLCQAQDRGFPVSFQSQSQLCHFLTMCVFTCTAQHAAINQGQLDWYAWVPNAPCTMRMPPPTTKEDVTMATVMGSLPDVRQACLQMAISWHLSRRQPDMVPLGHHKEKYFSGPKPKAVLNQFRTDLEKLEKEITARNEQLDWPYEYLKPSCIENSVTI
# Several values for one entry are separate records, joined by “and”; a condition that tells them apart may be missing. Equal values may be shown once. Hit rate of the full screen: of about 580,000 compounds, about 6,100 (1.1%) were called active. The inconclusive results got no clear call from the source; some entries with a clear call stand among them for comparison. Calls come from the whole dose curve; as a rule, active = well fitted inhibition curve with a large enough effect; inconclusive = small, poorly fitted or top-dose-only effect, or another doubt; inactive = no such curve, though single readings can be large or run the other way. A potency beside an inconclusive call is a rough fit, not a confirmed value.
# Biological target: Polyunsaturated fatty acid lipoxygenase ALOX12 (Homo sapiens) (UniProt P18054)
# Assay: Primary qHTS assay for inhibitors of human arachidonate 12S-lipoxygenase (ALOX12): Round 2
# Details: purified 12hLO, xylenol orange hydroperoxide absorbance; activity change, negative = inhibition: at 108 µM (top of the series) unless noted
# Outline: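 Purified human 12hLO (150 nM final) in 25 mM Hepes, 0.01% Triton X-100, pH 7.0 was preincubated 15 min at room temperature with compound. Then 40 uM arachidonic acid was added, 30 min. Hydroperoxide was read by Fe-XO absorbance ratio 573/405 nm.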
# % is set by controls: 0 for no effect and ±100 for the full control effect; potency is the fitted concentration of half-maximal effect.
SMILES,Potency,"activity change, negative = inhibition"
O=C(C1=C[C@H](C2CCCCC2)C[C@H](OCc2ccc(CO)cc2)O1)N1CCN(Cc2ccccc2)CC1,"inconclusive: 50.1 µM [inhibitor, partial curve, poor fit]",–
Cc1coc2c(C)c3oc(=O)c(CC(=O)NCc4ccccc4)c(C)c3cc12,inactive,–
O=[N+]([O-])/C=C/c1cc2ccccc2[nH]1,inactive,–
O=C/C(=C\Nc1ccc(Cl)cn1)c1nc2ccccc2o1,"inconclusive: 2.51 µM [inhibitor, full curve, poor fit]",–
Cc1ccc(-c2cc(Nc3ccccc3C(F)(F)F)nc(C)n2)cc1,active: 15.8 µM,–
O=c1c2c(-c3ccccc3)csc2ncn1/N=C/c1cccc([N+](=O)[O-])c1O,inactive,–
CCOC(=O)n1ccn(C)c1=S,"inconclusive: 8.91 µM [inhibitor, partial curve, poor fit]",–
CC1=NNC(=O)C1Oc1ccccc1 (configuration not stated),inactive,–
O=c1[nH]c(C2CCN(Cc3ccc(-c4cccnc4)cc3)CC2)nc2ccc(F)cc12,"inconclusive: 56.2 µM [inhibitor, partial curve, poor fit]",–
NC(=O)NC(=O)C(OC(=O)CCNS(=O)(=O)c1ccccc1)c1ccccc1 (configuration not stated),–,inconclusive: -30.7% [inhibitor]
CCOC(=O)/C(N=Nc1ccc2c(c1)OCO2)=C(\C)O,"inconclusive: 50.1 µM [inhibitor, partial curve, poor fit]",–
Cc1nn(CC(C)C)c2sc(C(=O)Nc3cccc(S(=O)(=O)N(C)C)c3)cc12,"inconclusive: 112 µM [inhibitor, single point]",–
Cc1ccc(C)c(OCc2ccc(-c3nc(C#N)c(N4CCC(C(N)=O)CC4)o3)o2)c1,"inconclusive: 35.5 µM [inhibitor, partial curve, poor fit]",–
CCCCOc1ccc(NC(=O)CCSc2nccn2C)cc1,"inconclusive: 39.8 µM [inhibitor, partial curve]",–
Cc1ccc(C(=O)N2CCC(Cc3ccccc3)CC2)cc1S(=O)(=O)N1CCOCC1,"inconclusive: 35.5 µM [inhibitor, single point]",–
CCCOc1ccccc1C(=O)N1CCCCC1CCN1CCOCC1 (configuration not stated),"inconclusive: 44.7 µM [inhibitor, partial curve, poor fit]",–
O=C(COc1cccc2cccnc12)N/N=C1\SCC(=O)N1Cc1ccccc1,"inconclusive: 5.62 µM [inhibitor, full curve, poor fit]",–
Clc1ccc2c(c1)c1cc(Cl)ccc1n2CN1CCOCC1,inactive,–
CCOC(=O)c1c(C)c(-c2ccccc2)n(CC(=O)NCCN2CCCCC2CC)c1C (configuration not stated),"inconclusive: 56.2 µM [inhibitor, partial curve, poor fit]",–
Cc1cccc2c(=O)c(-c3ccccc3)c(NC(=O)c3ccc([N+](=O)[O-])cc3)oc12,"inconclusive: 70.8 µM [inhibitor, partial curve, poor fit]",–
Cc1oc(C(O)c2ccccc2)nc1C(=O)Nc1ccncc1 (configuration not stated),inactive,–
Cc1nc(C)c(C(=O)N2[C@@H]3CC[C@H]2CC(NC(=O)c2ccncc2)C3)s1 (some centres not stated),inactive,–
O=C(Nc1cccnc1)c1ccc(COc2cc(Cl)ccc2Cl)o1,inactive,–

# Some values from above.
# In activity change, negative = inhibition, NC(=O)NC(=O)C(OC(=O)CCNS(=O)(=O)c1ccccc1)c1ccccc1 (configuration not stated) has inconclusive: -30.7% [inhibitor]
# In Potency, O=C(COc1cccc2cccnc12)N/N=C1\SCC(=O)N1Cc1ccccc1 has inconclusive: 5.62 µM [inhibitor, full curve, poor fit]

# Following part:

SMILES,Potency,"activity change, negative = inhibition"
CC1CN(c2ccc([N+](=O)[O-])c(NCCOc3ccc(Cl)cc3)c2)CC(C)N1 (configuration not stated),"inconclusive: 44.7 µM [inhibitor, partial curve, poor fit]",–
CCOC(=O)C1CCCN(S(=O)(=O)c2ccc(N3CCCCS3(=O)=O)cc2)C1 (configuration not stated),"inconclusive: 126 µM [inhibitor, partial curve, poor fit] and inconclusive: 35.5 µM [inhibitor, partial curve, poor fit]",–
O=C1c2c(nc(CNc3nccs3)n2Cc2ccccc2)NCCN1Cc1ccccc1F,inactive,–
Cc1cc(N2C(=O)C(O)=C(C(=O)c3ccco3)C2c2cccc(Oc3ccccc3)c2)no1 (configuration not stated),"inconclusive: 44.7 µM [inhibitor, partial curve, poor fit]",–
CC(=O)Nc1cccc(N(C)S(C)(=O)=O)c1,inactive,–
CCOC(=O)N1CCC(Nc2c(NCCCN(CC)CC)c(=O)c2=O)CC1,"inconclusive: 89.1 µM [inhibitor, single point]",–
CC(C)Oc1cccc(-c2nc(C(=O)N(C)Cc3ccccc3)cs2)c1,"inconclusive: 50.1 µM [inhibitor, partial curve, poor fit]",–
O=C(Nc1ccc2c(c1)CCC2)c1cccc2ccccc12,inactive,–
COc1ccc(F)cc1C(=O)/C=C/c1ccc(C(=O)O)cc1,inactive,–
O=C(c1cc(S(=O)(=O)NC2CC2)c(Cl)cc1Cl)N1CCN(c2ccccc2O)CC1,"inconclusive: 39.8 µM [inhibitor, partial curve, poor fit]",–
C=C(C)[C@@H]1CC=C(CN2CCN(Cc3ccccc3)CC2)CC1,inactive,–
O=C(Nc1cccc(-c2ccc(N3CCOCC3)nn2)c1)Nc1ccccc1F,"inconclusive: 25.1 µM [inhibitor, full curve]",–
CCOC(=O)C1CCN(c2nc3ccccc3nc2C(C#N)C(=O)NCc2ccccc2)CC1 (configuration not stated),inactive,–
c1coc(CNc2nc(Nc3cccc4ccccc34)nc3ccccc23)c1,"inconclusive: 44.7 µM [inhibitor, partial curve, poor fit]",–
CCOc1ccc(Nc2oc(-c3ccccc3C)nc2C#N)cc1,"inconclusive: 44.7 µM [inhibitor, partial curve, poor fit]",–
CCCCn1c(N)c(-c2nc3ccccc3s2)c2c([N+](=O)[O-])nn(CC)c(=O)c21,inactive,–
Cc1ccc(C(=O)Nc2ccc(S(=O)(=O)Nc3cnc4ccccc4n3)cc2)cc1,"inconclusive: 44.7 µM [inhibitor, partial curve, poor fit]",–
CCOC(=O)c1c(C)[nH]c(CCC(=O)NCCCN2CCN(c3cc(Cl)ccc3C)CC2)c1C,"inconclusive: 70.8 µM [inhibitor, partial curve, poor fit]",–
CC12CC3(C)CC(C)(C1)CC(C(=O)NC(=S)N1CCOCC1)(C2)C3,"inconclusive: 28.2 µM [inhibitor, partial curve]",–
CC(=O)Nc1ccc(NC(=O)C(C)OC(=O)/C=C/c2cn(-c3ccccc3)nc2-c2cccnc2)cc1 (configuration not stated),"inconclusive: 44.7 µM [inhibitor, partial curve, poor fit]",–
N#C/C(=C\c1c[nH]c2ccccc12)C(=O)Nc1ccc(O)cc1,"inconclusive: 56.2 µM [inhibitor, partial curve, poor fit]",–
Cc1[nH]c2ccccc2c1C(c1ccc(F)cc1)c1c(C)[nH]c2ccccc12,"inconclusive: 3.55 µM [inhibitor, partial curve, poor fit]",–
CC(NCc1ccc(-c2ccccc2)cc1)C(O)c1ccccc1 (configuration not stated),"inconclusive: 79.4 µM [inhibitor, single point]",–

SMILES,Potency,"activity change, negative = inhibition"
COc1cccc(NC(=O)C2CCCN(S(C)(=O)=O)C2)c1 (configuration not stated),"inconclusive: 39.8 µM [inhibitor, partial curve, poor fit]",–
COc1ccccc1C(=O)NNS(=O)(=O)c1ccc(F)cc1,"inconclusive: 44.7 µM [inhibitor, partial curve, poor fit]",–
c1cncc(CNc2nc(-c3ccc4c(c3)OCO4)nc3ccccc23)c1,inactive,–
COc1cc2c(cc1NC(=O)c1ccccc1F)CCCC2,inactive,–
CCN=C1S/C(=C\c2cn(C(C)=O)nc2-c2ccccc2)C(=O)N1CC,inactive,–
COc1ccc(OCC(=O)NS(=O)(=O)c2ccc(Cl)cc2)cc1,"inconclusive: 6.31 µM [inhibitor, full curve, poor fit]",–
O=C1NCCN(Cc2ccoc2)C1CC(=O)N(CCO)Cc1ccccc1F (configuration not stated),"inconclusive: 22.4 µM [inhibitor, full curve]",–
CN(C)C(=S)NC(=O)C12CC3(C)CC(C)(CC(C)(C3)C1)C2,inactive,–
CC(C)c1nnsc1Cn1ncc(N(C)CCc2ccccc2)cc1=O,"inconclusive: 7.08 µM [inhibitor, full curve, poor fit]",–
O=C(Nc1ccc2c(c1)C(=O)NC2=O)c1cccc(C(F)(F)F)c1,"inconclusive: 79.4 µM [inhibitor, single point]",–
Cc1ccc(NC(=O)NC(=O)CSc2nnc(-c3ccc(Cl)cc3Cl)n2N)c(C)c1,inactive,–
CCCN1C(=O)CCc2cc(NS(=O)(=O)c3ccc4c(c3)CCCC4)ccc21,inactive,–
Cc1ccc(NC(=O)c2c3c(nc4ccccc24)CCC3)cc1,inactive,–
COc1cc(CNn2c(C)n[nH]c2=S)cc(Cl)c1OCc1ccccc1,active: 20 µM,–
Cc1cccc(CNS(=O)(=O)c2csc(C(N)=O)c2)c1,inactive,–
CS(=O)(=O)N1CCCCC1c1nc(CCOCC2CCCC2)no1 (configuration not stated),inactive,–
CC1(C)CC(=O)C2=C(C1)OC(N)=C(C#N)C2c1ccccc1[N+](=O)[O-] (configuration not stated),"inconclusive: 31.6 µM [inhibitor, partial curve, poor fit]",–
C#CCNC(=O)C1=C[C@@H](c2ccc(Br)cc2)[C@H](CCCO)[C@@H](OCC)O1,"inconclusive: 112 µM [inhibitor, single point]",–
O=Cc1ccc(OCc2ccc(Cl)cc2)c(Br)c1,"inconclusive: 20 µM [inhibitor, partial curve, poor fit]",–
COc1ccc(OCCCNCCc2ccccc2)cc1,"inconclusive: 89.1 µM [inhibitor, single point]",–
S=c1[nH]nc(-c2cccnc2)o1,"inconclusive: 141 µM [inhibitor, partial curve, poor fit]",–

# For convenience, some entries already given.
SMILES,Potency,"activity change, negative = inhibition"
CCCN1C(=O)CCc2cc(NS(=O)(=O)c3ccc4c(c3)CCCC4)ccc21,inactive,–
Cc1ccc(NC(=O)c2c3c(nc4ccccc24)CCC3)cc1,inactive,–
